Part of at least one peptide drawing is inferred or uncertain, most often the ends. Where no end group is shown, it is not given here.
Key:
[1] = system: Myeloperoxidase enzyme (MPO) activity; assay: Spinal cord injury model, myeloperoxidase activity in the injured spinal cord; assay type: in vivo, Sprague-Dawley rats; conditions: 5 M MK2i dose (I.V.), 0.5 ml in 0.9% NaCl 30 minutes after injury; sacrifice after 4 hours
[2] = system: mixed cortical cells (neurons, microglia, astrocytes); assay: Neurite outgrowth in mixed cortical cells; assay type: cell-based, Sprague Dawley rat; conditions: 100 mM MK2i for 5 hours after 24 hours culture; n=113 neurites vs 160 control; t-test p≦0.01
[3] = system: cortical cells; assay: Live-dead assay of cortical cell cultures; assay type: cell-based, rat; conditions: 24 hours
[4] = system: MK2; assay: Western blot of MK2 expression in cultured cortical cells; assay type: cell-based

YARAAARQARAKALARQLGVAA-NH2 [MK2i]
MPO activity in injured spinal cord vs higher doses and saline control [1]: significant reduction
mean neurite length vs control [2]: significantly larger than that of the control
% dead cells, normalized to TNF-α only treatment ([3]; 5 ng/ml TNF-α + MK2i (500 μM, 1 mM, 3 mM)): significantly decreased
% dead cells, normalized to TNF-α only treatment ([3]; 10 ng/ml TNF-α + MK2i (500 μM, 1 mM, 3 mM), decrease not statistically significant): decreased
MK2 activity (FIG. 9) or phosphorylation (data not shown) [4]: does not reduce
MK2 expression vs control blots ([4]; 24 hr 0.5 mM MK2i, cultured cortical cells): no significant reduction
